Experimental data: publication doi:10.1101/2025.11.10.687652
No constants are given. Whether binding was seen depends on the method and setting. Binding seen in cells or lysates may run through a third protein. Some entries that bind do so weakly or less than the wild type. Tags and fused reporters may be left off the sequences shown.

The chains behind the UniProt entries cited, without tags or fusion partners.
UniProt P49321: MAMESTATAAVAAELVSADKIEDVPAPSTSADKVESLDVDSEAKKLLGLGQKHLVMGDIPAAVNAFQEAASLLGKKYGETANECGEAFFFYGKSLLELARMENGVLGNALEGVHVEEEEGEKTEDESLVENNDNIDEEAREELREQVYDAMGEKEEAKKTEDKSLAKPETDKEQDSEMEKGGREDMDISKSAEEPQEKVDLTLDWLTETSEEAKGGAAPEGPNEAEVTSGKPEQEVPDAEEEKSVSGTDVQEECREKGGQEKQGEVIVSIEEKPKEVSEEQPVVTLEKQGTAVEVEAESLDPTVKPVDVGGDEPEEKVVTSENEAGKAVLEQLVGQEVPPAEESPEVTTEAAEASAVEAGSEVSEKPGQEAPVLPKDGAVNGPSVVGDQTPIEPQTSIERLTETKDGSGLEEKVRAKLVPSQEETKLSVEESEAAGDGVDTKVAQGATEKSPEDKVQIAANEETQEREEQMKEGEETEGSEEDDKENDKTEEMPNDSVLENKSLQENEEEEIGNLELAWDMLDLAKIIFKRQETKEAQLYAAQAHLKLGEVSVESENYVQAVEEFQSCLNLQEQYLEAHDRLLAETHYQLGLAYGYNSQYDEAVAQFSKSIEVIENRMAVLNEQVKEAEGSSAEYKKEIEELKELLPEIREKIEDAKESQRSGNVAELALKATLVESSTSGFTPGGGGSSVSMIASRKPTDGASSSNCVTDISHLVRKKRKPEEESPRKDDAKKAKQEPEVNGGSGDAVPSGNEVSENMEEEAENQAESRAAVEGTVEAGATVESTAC

Target: T1, human FLAG-DONSON (wild type) (human) (UniProt Q9NYP3)
T1 sequence: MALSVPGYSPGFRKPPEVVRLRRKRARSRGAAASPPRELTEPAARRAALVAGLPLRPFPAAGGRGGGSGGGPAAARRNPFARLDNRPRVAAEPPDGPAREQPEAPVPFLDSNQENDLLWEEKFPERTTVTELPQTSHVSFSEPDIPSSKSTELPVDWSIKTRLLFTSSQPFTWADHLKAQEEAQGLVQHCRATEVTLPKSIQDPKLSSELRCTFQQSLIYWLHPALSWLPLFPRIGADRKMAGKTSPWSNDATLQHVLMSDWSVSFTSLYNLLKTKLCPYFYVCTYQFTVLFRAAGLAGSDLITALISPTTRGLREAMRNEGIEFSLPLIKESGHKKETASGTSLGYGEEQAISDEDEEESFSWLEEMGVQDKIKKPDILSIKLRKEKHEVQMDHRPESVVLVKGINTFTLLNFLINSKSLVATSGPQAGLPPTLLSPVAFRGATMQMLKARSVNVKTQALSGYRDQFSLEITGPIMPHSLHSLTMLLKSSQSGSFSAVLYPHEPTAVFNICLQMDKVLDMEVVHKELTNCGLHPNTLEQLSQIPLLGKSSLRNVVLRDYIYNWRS
Test: co-IP; FLAG-DONSON from wheat germ extract bound to anti-DYKDDDDK magnetic agarose and washed, then wheat germ extract expressing HA-NASP added in 2xELB-sucrose, 1 hour at 4 °C; eluted with FLAG peptide; immunoblot

- binding: binds
Substance: human HA-NASP (from UniProt P49321 1-788)
